According to doi:10.1101/2024.06.20.599818:
These are yes or no findings as the source states them, for the method shown. In cells and extracts the contact can be indirect. Some binding calls cover weakened binding; strength is not graded here. For some of these results: Tags and fused reporters may be left off the sequences shown. Blank lines part the entries; values can stand above or below the binder they belong to.

Key:
Test in all cases: co-IP
[1] = molecular target: T1, PPTC7, ectopically overexpressed (UniProt Q8NI37)
T1 sequence: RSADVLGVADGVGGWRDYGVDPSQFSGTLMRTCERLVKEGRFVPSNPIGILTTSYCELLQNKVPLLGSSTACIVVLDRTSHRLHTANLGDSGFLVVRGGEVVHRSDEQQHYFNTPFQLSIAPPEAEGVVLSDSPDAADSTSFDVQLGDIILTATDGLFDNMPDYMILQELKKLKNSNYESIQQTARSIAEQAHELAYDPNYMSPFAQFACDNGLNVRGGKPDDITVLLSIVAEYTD

FLAG-FBXL4 = molecular target: T2, FLAG-FBXL4 (UniProt Q9UKA2)
T2 sequence: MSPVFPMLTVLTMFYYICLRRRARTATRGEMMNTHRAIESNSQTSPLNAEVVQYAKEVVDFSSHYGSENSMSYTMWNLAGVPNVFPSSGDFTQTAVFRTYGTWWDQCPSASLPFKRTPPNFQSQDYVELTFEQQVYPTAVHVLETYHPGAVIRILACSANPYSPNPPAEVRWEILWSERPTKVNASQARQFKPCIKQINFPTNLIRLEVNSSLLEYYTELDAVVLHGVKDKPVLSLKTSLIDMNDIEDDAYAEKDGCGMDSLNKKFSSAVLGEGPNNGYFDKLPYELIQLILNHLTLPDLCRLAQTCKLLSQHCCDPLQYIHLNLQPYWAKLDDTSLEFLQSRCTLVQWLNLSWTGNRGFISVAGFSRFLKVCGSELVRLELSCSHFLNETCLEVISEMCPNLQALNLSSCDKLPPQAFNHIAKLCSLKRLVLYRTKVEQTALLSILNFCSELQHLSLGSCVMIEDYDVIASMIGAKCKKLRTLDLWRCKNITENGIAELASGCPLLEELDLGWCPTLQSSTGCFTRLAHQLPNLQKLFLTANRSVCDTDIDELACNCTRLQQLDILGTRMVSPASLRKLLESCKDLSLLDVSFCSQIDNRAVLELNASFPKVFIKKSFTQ

FLAG-PPTC7 = molecular target: T3, FLAG-PPTC7 (UniProt Q8NI37)
T3 sequence: T1 sequence

binding [1]: no binding
B1: NIPSNAP1, from a transfected plasmid (protein, UniProt Q9BPW8 36-284)
chain: SKDNEGSWFRSLFVHKVDPRKDAHSTLLSKKETSNLYKIQFHNVKPEYLDAYNSLTEAVLPKLHLDEDYPCSLVGNWNTWYGEQDQAVHLWRFSGGYPALMDCMNKLKNNKEYLEFRRERSQMLLSRRNQLLLEFSFWNEPQPRMGPNIYELRTYKLKPGTMIEWGNNWARAIKYRQENQEAVGGFFSQIGELYVVHHLWAYKDLQSREETRNAAWRKRGWDENVYYTVPLVRHMESRIMIPLKISPLQ

binding (FLAG-FBXL4): binds
B2: endogenous PPTC7 (protein, UniProt Q8NI37 69-304)
chain: T1 sequence

binding [1]: binds
B3: FBXL4, exogenous (protein, UniProt Q9UKA2 1-621)
chain: T2 sequence

binding (FLAG-PPTC7): binds
B4: endogenous FBXL4 (protein, UniProt Q9UKA2 1-621)
chain: T2 sequence
